Test results as given in article PMC10163288.
The other results are listed elsewhere or left out.

B1: il10ra_site1_sap_13_mot_HHH_b1_05357_000000034_0001_23_39_H_._HHH_b2_00121_0002_0000200034_0000001_0_0001 (protein)
chain: SSSSDEEELARILHEAMKAYRELVENGNHEEAEELARLLLELVRRGDPRIAEEIEELLEKLSSSS
B2: il10ra_site1_normal_mot_HHH_b2_07440_af2_000000021_0001_1_18_H_._HHH_b1_03012_af2_0001_0000200005_0000003_0 (protein)
chain: SSSSDEELEKALRLSLEAFRLALRGNEEEAEEVLEKAEELLEKLGDPRLLRVVRDLLRALSSSSS
B3: il10ra_site1_normal_mot_HHH_b2_04680_000000215_0001_1_16_H_._HHH_b2_01633_af2_0001_0000300026_0000001_0 (protein)
chain: SSSSDIRLIREAYELLRKAFEALQQGNEEEARELLEQAEKLAEEGGNHALLFAIRQLLRQISSSS
B4: il10ra_site1_normal_mot_1780dbfa062735e19749cb993a6c019b_0001_1_af2_000000050_0001_34_50_H_._HHH_b2_07550_af2_0001_0000100001_0000001_0 (protein)
chain: SSSSSREELAELLRRIAHVFAEGDNEELEELLEEAIEIAQELNNEQAVKALELILKDLREISSSS
B5: il10ra_site1_sap_21_mot_HHH_b1_05326_000000242_0001_1_20_H_._HHH_b1_00201_af2_0001_0000500048_0000001_0_0001_af2pred_dldesign_0_af2pred (protein)
chain: SSSSSSNEEVVALLKEAAELRAEGKPEEAREVLEKALELAKKLGSQILIDQAEFLLADVLASSSS
B6: il10ra_site1_sap_19_mot_HHH_b1_02809_af2_000000277_0001_40_57_H_._HHH_b2_06042_0001_0000400042_0000001_0_0001 (protein)
chain: SSSSQETYELIKEAIKEVKELWESGNPEEAEELAEEVKKRLEELGDPLTARVFENAVRLSLSSSS
B7: il10ra_site1_normal_mot_HHH_b1_05326_000000242_0001_1_20_H_._HHH_b1_02800_0001_0000700021_0000002_0 (protein)
chain: SSSSDEEELEEILEIAVELFRLMLRGNPEEAERLLEELEEIAERHNDEVAEKLVEIIKESLSSSS
B8: il10ra_site1_normal_mot_HHH_b2_02287_000000121_0001_1_22_H_._HHH_b1_07128_af2_0001_0000200017_0000001_0 (protein)
chain: SSSSDERYEEVKRILQEVLELHRNGDHEEAERLLRELEEELEELGNDNALFVVEFLLRLVTSSSS
B9: il10ra_site1_normal_mot_HHH_b2_04251_af2_000000037_0001_42_56_H_._HHH_b1_07004_0001_0000500044_0000001_0 (protein)
chain: SSSSDQEELREEAKEVEEEIKEIPDPEERLKLLQELSRHAIELADPEVTRIVLELAEFIRNSSSS
B10: il10ra_site1_sap_19_mot_HHH_b2_00335_000000038_0001_43_57_H_._HHH_b1_03234_0001_0000400063_0000002_0_0001 (protein)
chain: SSSSEAVKRVAELLREASKLQNDGNPEEAERVAEEALEVAEEGNNPLLEWQARFLLHRIRNSSSS
B11: il10ra_site1_normal_mot_HHH_b2_01032_000000296_0001_1_18_H_._HHH_b1_04384_af2_0001_0000600026_0000001_1 (protein)
chain: SSSSSDEEEELLELSRQAFELALRGNPEEAREVLEEAERLARELGDERLLRLVEELLQALSSSSS
B12: il10ra_site1_sap_25_mot_HHH_b2_06752_000000207_0001_1_21_H_._HHH_b1_03800_0001_0000100019_0000002_0_0001 (protein)
chain: SSSSDVEEQVEELEEEIERLIEENDPEEALRLIMELVRLAFRNSDPETLRRAWELAKRLVSSSSS
B13: il10ra_site1_normal_mot_HHH_b1_08742_000000038_0001_1_20_H_._HHH_b2_07548_0001_0000400020_0000001_1_af2pred_0001 (protein)
chain: SSSSSDEEEEEVEELLEEAKHIEDSEERLKLIREAAKIAVEANDPELERLVREVSHEASSSSSSS
B14: il10ra_site1_sap_16_mot_HHH_b1_02997_000000220_0001_39_52_H_._HHH_b2_02100_0001_0000300036_0000001_0_0001_af2pred_0001 (protein)
chain: SSSSDEEEEEVKELLEEAEKIPDDREVARLLFRALRLAAELNDPELIRAVLKVAARLREGSSSSS
B15: il10ra_site1_normal_mot_HHH_b1_01821_000000158_0001_23_39_H_._HHH_b2_05355_0001_0000400025_0000001_0 (protein)
chain: SSSSDEEELEREVRELLEQAEETSDQEERVELALRALRLVFRNSDPELLQLIWEVFRRLASSSSS
B16: il10ra_site1_normal_mot_HHH_b1_01880_000000285_0001_23_39_H_._HHH_b1_04714_0001_0000200020_0000001_0_af2pred_0001 (protein)
chain: SSSSSRFEIAFRFLRHLAEALGDPELERLLEELLEEYEKEGDPKYLQEAAKLVLKRSRELSSSSS
B17: il10ra_site1_sap_25_mot_HHH_b2_00984_000000042_0001_1_20_H_._ems_p1-16H-GBL-16H-GABBL-15H_0053_0001_0001_0001_0001_0000400031_0000001_1_0001 (protein)
chain: SSSSDAAEFLVRQAIRVLRLLGDEEAVRRVEELLEEAEEKGDPELFHEAIHLAVELAQQDSSSSS
B18: il10ra_site1_normal_mot_HHH_b2_05984_000000071_0001_38_52_H_._HHH_b1_05086_0001_0000200011_0000001_0_af2pred_dldesign_0_af2pred (protein)
chain: SSSSNPAARAEAERLYEELKKLLKEGKKEEVQKLFQQLVKLALETECVYAAQLANELLKLLSSSS

molecular target: il10ra, Q13651; test: yeast display titration

| Binder | apparent Kd |
| --- | --- |
| B1 | inactive: no binding seen |
| B2 | inactive: no binding seen |
| B3 | inactive: no binding seen |
| B4 | inactive: no binding seen |
| B5 | inactive: no binding seen |
| B6 | inactive: no binding seen |
| B7 | inactive: no binding seen |
| B8 | inactive: no binding seen |
| B9 | inactive: no binding seen |
| B10 | inactive: no binding seen |
| B11 | inactive: no binding seen |
| B12 | inactive: no binding seen |
| B13 | inactive: no binding seen |
| B14 | inactive: no binding seen |
| B15 | inactive: no binding seen |
| B16 | inactive: no binding seen |
| B17 | inactive: no binding seen |
| B18 | inactive: no binding seen |

Look-ups from the entries so far:
Entry of B8 under apparent Kd: inactive: no binding seen
Entry of B18 under apparent Kd: inactive: no binding seen
